Test results from PMC9599297, “Graphitic Carbon Nitride and IGZO Bio-FET for Rapid Diagnosis of Myocardial Infarction”.

Target: T1, myoglobin (UniProt P02144)
T1 sequence (looked up, limits assumed): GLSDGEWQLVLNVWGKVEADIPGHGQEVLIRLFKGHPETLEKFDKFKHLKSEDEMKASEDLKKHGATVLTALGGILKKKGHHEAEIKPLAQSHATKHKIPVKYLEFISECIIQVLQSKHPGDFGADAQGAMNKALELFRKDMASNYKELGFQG
Experiment: FET aptasensor (IGZO/PCN-Au NPs), drain current change
Details: selectivity test, noticeably weaker than cTnI, interference <5%; ThiC6 (thiol-C6) at 5' end, immobilised on Au NPs; 10 mM PBS pH 7.4 (PBS tablets: 2.7 mM KCl, 137 mM NaCl), 10 min incubation, water wash; surface blocked with MCH and 0.10 mg/mL BSA; temperature not stated; commercial protein; single-stranded DNA

Does “CGTGCAGTACGCCAACCTTTCTCATGCGCTGCCCCTTA [Tro4 anti-cTnI DNA aptamer]” bind?
Result: binds more weakly

For at least one entry, the source does not settle the construct or the ends of the probe. The comparison behind a weaker result is the experiment's own reference, which may not be listed here. Tags and fusion partners may be left off the protein sequences shown.
